This is an account of results in PMC12752355.

By UniProt entry, the sequences of proteins in these tests, tags left out.
UniProt Q09472: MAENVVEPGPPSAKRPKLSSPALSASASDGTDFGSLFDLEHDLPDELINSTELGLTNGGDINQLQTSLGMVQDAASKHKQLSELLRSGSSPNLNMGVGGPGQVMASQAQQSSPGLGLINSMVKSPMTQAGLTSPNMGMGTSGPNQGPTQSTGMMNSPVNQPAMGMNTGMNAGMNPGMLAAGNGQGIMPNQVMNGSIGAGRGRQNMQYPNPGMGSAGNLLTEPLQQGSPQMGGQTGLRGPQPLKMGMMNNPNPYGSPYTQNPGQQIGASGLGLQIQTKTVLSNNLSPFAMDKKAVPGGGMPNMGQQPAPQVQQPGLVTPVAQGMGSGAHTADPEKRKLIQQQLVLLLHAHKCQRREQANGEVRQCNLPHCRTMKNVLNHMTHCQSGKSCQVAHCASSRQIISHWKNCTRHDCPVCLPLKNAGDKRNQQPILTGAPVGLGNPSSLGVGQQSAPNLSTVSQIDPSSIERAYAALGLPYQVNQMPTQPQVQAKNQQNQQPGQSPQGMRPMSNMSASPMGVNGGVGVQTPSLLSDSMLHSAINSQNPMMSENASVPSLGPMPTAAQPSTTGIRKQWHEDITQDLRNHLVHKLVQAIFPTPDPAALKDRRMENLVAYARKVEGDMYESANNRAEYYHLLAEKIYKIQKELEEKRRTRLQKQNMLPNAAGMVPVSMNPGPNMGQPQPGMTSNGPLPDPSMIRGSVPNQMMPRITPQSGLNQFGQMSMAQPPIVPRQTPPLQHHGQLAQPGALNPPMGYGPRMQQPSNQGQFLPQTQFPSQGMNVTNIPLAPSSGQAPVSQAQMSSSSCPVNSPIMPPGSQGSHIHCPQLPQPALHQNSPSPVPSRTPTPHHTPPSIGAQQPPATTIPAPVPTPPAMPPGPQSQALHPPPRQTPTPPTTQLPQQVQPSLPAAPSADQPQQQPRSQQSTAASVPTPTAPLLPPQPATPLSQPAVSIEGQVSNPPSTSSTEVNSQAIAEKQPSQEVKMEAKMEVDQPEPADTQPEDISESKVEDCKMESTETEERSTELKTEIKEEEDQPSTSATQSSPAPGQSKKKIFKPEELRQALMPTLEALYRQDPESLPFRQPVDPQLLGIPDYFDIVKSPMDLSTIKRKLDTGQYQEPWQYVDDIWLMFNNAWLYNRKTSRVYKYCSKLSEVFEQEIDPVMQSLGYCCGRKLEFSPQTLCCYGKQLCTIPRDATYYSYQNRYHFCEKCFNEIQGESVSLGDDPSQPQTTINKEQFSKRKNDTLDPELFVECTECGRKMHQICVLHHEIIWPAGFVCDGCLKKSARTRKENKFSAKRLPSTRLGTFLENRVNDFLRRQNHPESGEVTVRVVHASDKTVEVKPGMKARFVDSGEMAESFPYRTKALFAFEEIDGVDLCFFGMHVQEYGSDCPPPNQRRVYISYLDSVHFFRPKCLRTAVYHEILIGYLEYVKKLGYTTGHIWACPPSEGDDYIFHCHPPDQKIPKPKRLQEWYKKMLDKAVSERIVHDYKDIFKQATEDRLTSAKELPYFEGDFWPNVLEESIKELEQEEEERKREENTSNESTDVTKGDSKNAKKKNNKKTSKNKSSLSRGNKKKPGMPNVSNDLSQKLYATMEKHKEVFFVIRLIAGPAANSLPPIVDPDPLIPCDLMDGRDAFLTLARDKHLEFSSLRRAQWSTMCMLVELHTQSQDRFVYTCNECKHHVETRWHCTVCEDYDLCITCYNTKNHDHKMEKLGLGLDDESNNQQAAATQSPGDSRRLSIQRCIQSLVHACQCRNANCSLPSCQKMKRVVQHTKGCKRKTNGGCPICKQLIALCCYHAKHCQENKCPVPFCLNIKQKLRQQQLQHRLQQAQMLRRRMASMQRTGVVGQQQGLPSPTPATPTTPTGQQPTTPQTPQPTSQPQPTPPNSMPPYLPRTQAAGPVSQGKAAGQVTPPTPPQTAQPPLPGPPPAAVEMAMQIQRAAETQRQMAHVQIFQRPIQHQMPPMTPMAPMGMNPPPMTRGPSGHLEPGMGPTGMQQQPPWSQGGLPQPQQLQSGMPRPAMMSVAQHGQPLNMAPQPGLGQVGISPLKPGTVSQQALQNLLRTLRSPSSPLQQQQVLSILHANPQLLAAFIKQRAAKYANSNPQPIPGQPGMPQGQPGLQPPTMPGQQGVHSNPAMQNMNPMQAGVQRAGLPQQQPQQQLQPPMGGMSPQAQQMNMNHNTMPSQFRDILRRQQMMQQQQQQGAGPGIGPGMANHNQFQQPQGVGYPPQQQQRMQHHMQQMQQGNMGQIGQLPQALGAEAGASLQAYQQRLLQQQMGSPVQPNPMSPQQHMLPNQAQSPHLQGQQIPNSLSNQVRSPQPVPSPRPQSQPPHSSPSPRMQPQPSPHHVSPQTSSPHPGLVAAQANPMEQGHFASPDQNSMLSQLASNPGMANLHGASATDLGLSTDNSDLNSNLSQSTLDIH

These are yes or no findings as the source states them, for the method shown. Binding seen in cells or lysates may run through a third protein. Some binding calls cover weakened binding; strength is not graded here.

Test [1] concerns the target P300 (in HEK-293 T cells) (UniProt Q09472). Description: co-IP; HEK-293 T cell lysate (IP lysis buffer with PMSF), antibody and Protein A/G agarose beads overnight at 4 C; which protein was precipitated is not told (Figure S7B).
Test [2] concerns the target P300 (human (endogenous in EJ-1)) (UniProt Q09472). As to the kind of experiment: co-IP; EJ-1 cell lysate (IP lysis buffer with PMSF); immunoprecipitated with anti-P300 antibody or control IgG and Protein A/G agarose beads overnight at 4 C, six washes; western blot for HNRNPA1.

On to “HNRNPA1 (in HEK-293 T cells) (from UniProt P09651-1 1-372)”, for which the binding result in test [1] is on record as “binds”.

In the case of “heterogeneous nuclear ribonucleoprotein A1 (HNRNPA1) (from UniProt P09651-1 1-372)”, the binding entry in test [2] is on record as “binds”.
